Out of some 360,000 compounds screened, about 9,100 (2.5%) were called active. Inconclusive means that the source gave no clear call. Such entries were picked first, then a sample of the others. Rule as the data show it: active = max response below about -50%; inconclusive = no clear call, values can overlap the other calls; inactive = above that.
Molecular target: D(3) dopamine receptor (Homo sapiens) (UniProt P35462)
Experiment: qHTS of D3 Dopamine Receptor Antagonist: qHTS
Details: D3R cells, DiscoveRx beta-arrestin luminescence, antagonist mode; hits give low values
How it was run: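 Cells expressing the human receptor were seeded at 1500 cells/well, incubated overnight at 37 degrees C in 5% CO2, then exposed to library compounds with dopamine controls for 90 minutes at 37 degrees C before luminescent detection.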
% is scaled to controls: 0 for no effect and ±100 for the full control effect.

By UniProt entry, the sequences of proteins in these tests, tags left out.
UniProt P35462, whole entry, looked up: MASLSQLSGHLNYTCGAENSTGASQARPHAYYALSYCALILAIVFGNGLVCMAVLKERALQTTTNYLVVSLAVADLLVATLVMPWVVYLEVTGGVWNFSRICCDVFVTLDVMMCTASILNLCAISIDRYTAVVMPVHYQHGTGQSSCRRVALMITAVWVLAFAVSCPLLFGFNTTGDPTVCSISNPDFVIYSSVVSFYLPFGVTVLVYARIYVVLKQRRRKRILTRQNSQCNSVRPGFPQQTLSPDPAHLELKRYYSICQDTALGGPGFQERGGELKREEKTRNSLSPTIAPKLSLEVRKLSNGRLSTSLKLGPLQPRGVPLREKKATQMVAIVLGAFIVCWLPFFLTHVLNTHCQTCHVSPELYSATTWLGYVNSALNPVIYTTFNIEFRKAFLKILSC

Max response, negative = inhibition, inconclusive:
c1ccc(N2OCC3Cn4c(nc5ccccc54)C32)cc1 (stereo not given) -31%
CCN(CC)c1ccc(/C=N/N2CCN(Cc3ccccc3)CC2)c(O)c1 -42.8%
O=C(O)c1cccc(Nc2ccc3nonc3c2[N+](=O)[O-])c1 -38.7%
CC1CCc2nc(NC(=O)c3ccc(S(=O)(=O)N4CCCc5ccccc54)cc3)sc2C1 (stereo not given) -40.8%
CC1=C(C(=O)N(C(C)C)C(C)C)CC(CC(=O)NCC2CCCCC2)C(=O)N1Cc1ccccc1 (stereo not given) -39.1%
CCOC(=O)c1ccc(NC(=S)NN)cc1 -44.5%
CCC(=O)Nc1ccc(S(=O)(=O)Nc2cccc(C)c2)cc1OC -34.6%
CCOC(=O)[C@]12CCCC=C1N(Cc1ccc(Cl)cc1Cl)C(=O)[C@H](CC(=O)NCCC(C)C)C2 -35%
O=C(NC(=S)NCCc1ccccc1)c1ccccc1 -31.1%
O=C1OCC(c2ccc(Cl)s2)=C1c1ccccc1[N+](=O)[O-] -40.5%
NC(=O)c1ccccc1NC(=O)CCCN1C(=O)CCC1=O -34.8%
COc1ccc(C(=O)N2CCCN(C)CC2)cc1S(=O)(=O)N1CCCc2ccccc21 -47.3%
O=C(Oc1cccc2cccnc12)c1ccco1 -32.1%
COc1ccc(Nc2n[nH]c(C)c2[N+](=O)[O-])cc1 -32.9%
Cc1cc(C)n(-c2ccc(C(=O)Nc3ccc(S(=O)(=O)NCc4ccco4)cc3)cc2)n1 -34.2%
Cc1c(C(=O)N2CCCc3ccccc32)oc2ccc(S(=O)(=O)N3CCOCC3)cc12 -35.8%

Retrieved by structure from the list above (2):
Max response, negative = inhibition, inconclusive:
CCOC(=O)[C@]12CCCC=C1N(Cc1ccc(Cl)cc1Cl)C(=O)[C@H](CC(=O)NCCC(C)C)C2 -35%
O=C(NC(=S)NCCc1ccccc1)c1ccccc1 -31.1%

Next part.

Max response, negative = inhibition, active:
Cc1oc(C(C)(C)C)cc1C(=O)NC1CCN(Cc2ccccc2)CC1 -79.7%
N#Cc1ccccc1OCCCN1CCC(Cc2ccccc2)CC1 -109%
Cc1cccc(N2C(=O)N(c3ccccc3C)C3CS(=O)(=O)CC32)c1 (stereo not given) -52.7%
O=C(Oc1ccccc1)c1cccc2cccnc12 -53.6%

Max response, negative = inhibition, inactive:
CN(C)c1ccc(/C=C/c2ccncc2)cc1 0%
O=C(Oc1ccc(-c2ccccc2)cc1)c1ccco1 5.45%
COc1ccc(N2CCN(C(=O)NC(=O)c3ccc(Cl)cc3)CC2)cc1 0.859%
COc1ccc2c(CCNC(=O)Nc3ccccc3)c[nH]c2c1 -1.59%
CN(C)c1ccc(C=Cc2nccc3ccccc23)cc1 18.7%

Source: PubChem BioAssay AID652054 (National Center for Advancing Translational Sciences (NCATS), 2013)
